# The list shows a part of the results.
# Legend:
# Assay in all cases: glycan array binding signal (z-score within array); higher = stronger binding
# Conditions in all cases: glycan notation: IUPAC condensed, linker removed
# [1] = target: Fuc(a1-2)Gal(b1-4)GlcNAc(b1-3)Gal(b1-4)GlcNAc(b1-2)Man(a1-3)[Fuc(a1-2)Gal(b1-4)GlcNAc(b1-3)Gal(b1-4)GlcNAc(b1-2)Man(a1-6)]Man(b1-4)GlcNAc(b1-4)GlcNAc
# How it was run: (§1)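 The Consortium for Functional Glycomics database supplied 3228 glycan arrays, of which those lacking an available protein sequence were dropped. The binding signal, a within-array Z-score, was averaged across arrays of the same protein sequence and across linkers. Negative scores can be read as non-binding.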
# [2] = target: Fuc(a1-2)Gal(b1-4)GlcNAc(b1-3)Gal(b1-4)GlcNAc(b1-3)Gal(b1-4)GlcNAc
# How it was run: as §1
# [3] = target: Fuc(a1-2)Gal(b1-4)GlcNAc(b1-3)GalNAc
# How it was run: as §1
# [4] = target: Fuc(a1-2)Gal(b1-4)GlcNAc(b1-3)[Fuc(a1-2)Gal(b1-4)GlcNAc(b1-6)]GalNAc
# How it was run: as §1
# [5] = target: Fuc(a1-2)Gal(b1-4)GlcNAc(b1-3)[Fuc(a1-3)[Gal(b1-4)]GlcNAc(b1-6)]Gal(b1-4)Glc
# How it was run: as §1
# [6] = target: Fuc(a1-2)Gal(b1-4)GlcNAc(b1-6)GalNAc
# How it was run: as §1
# [7] = target: Fuc(a1-2)Gal(b1-4)GlcNAc6S
# How it was run: as §1
# [8] = target: Fuc(a1-2)Gal(b1-4)[Fuc(a1-3)]GlcNAc
# How it was run: as §1
# [9] = target: Fuc(a1-2)Gal(b1-4)[Fuc(a1-3)]GlcNAc(b1-2)Man(a1-3)[Fuc(a1-2)Gal(b1-4)[Fuc(a1-3)]GlcNAc(b1-2)Man(a1-6)]Man(b1-4)GlcNAc(b1-4)[Fuc(a1-6)]GlcNAc
# How it was run: as §1
# [10] = target: Fuc(a1-2)Gal(b1-4)[Fuc(a1-3)]GlcNAc(b1-2)[Fuc(a1-2)Gal(b1-4)[Fuc(a1-3)]GlcNAc(b1-4)]Man(a1-3)[Fuc(a1-2)Gal(b1-4)[Fuc(a1-3)]GlcNAc(b1-2)Man(a1-6)]Man(b1-4)GlcNAc(b1-4)GlcNAc
# How it was run: as §1
# [11] = target: Fuc(a1-2)Gal(b1-4)[Fuc(a1-3)]GlcNAc(b1-3)Gal(b1-4)[Fuc(a1-3)]GlcNAc
# How it was run: as §1
# [12] = target: Fuc(a1-2)Gal(b1-4)[Fuc(a1-3)]GlcNAc(b1-3)Gal(b1-4)[Fuc(a1-3)]GlcNAc(b1-3)Gal(b1-4)[Fuc(a1-3)]GlcNAc
# How it was run: as §1
# [13] = target: Fuc(a1-2)Gal(b1-4)[Fuc(a1-3)]GlcNAc(b1-3)GalNAc
# How it was run: as §1
# [14] = target: Fuc(a1-2)Gal(b1-4)[Fuc(a1-3)]GlcNAc(b1-3)[Neu5Ac(a2-6)Gal(b1-4)GlcNAc(b1-6)]Gal(b1-4)Glc
# How it was run: as §1
# [15] = target: Fuc(a1-2)Gal3S(b1-4)GlcNAc
# How it was run: as §1
# [16] = target: Fuc(a1-2)Gal6S(b1-3)GlcNAc
# How it was run: as §1
# [17] = target: Fuc(a1-2)Gal6S(b1-3)GlcNAc6S
# How it was run: as §1
# Fuc(a1-2)Gal6S(b1-4)Glc = target: Fuc(a1-2)Gal6S(b1-4)Glc
# How it was run: as §1
# [18] = target: Fuc(a1-2)Gal6S(b1-4)Glc6S
# How it was run: as §1
# Fuc(a1-2)[Gal(a1-3)]Gal = target: Fuc(a1-2)[Gal(a1-3)]Gal
# How it was run: as §1
# [19] = target: Fuc(a1-2)[Gal(a1-3)]Gal(b1-3)GalNAc
# How it was run: as §1
# [20] = target: Fuc(a1-2)[Gal(a1-3)]Gal(b1-3)GalNAc(b1-3)Gal(a1-4)Gal(b1-4)Glc
# How it was run: as §1
# [21] = target: Fuc(a1-2)[Gal(a1-3)]Gal(b1-3)GlcNAc
# How it was run: as §1
# [22] = target: Fuc(a1-2)[Gal(a1-3)]Gal(b1-3)GlcNAc(b1-2)Man(a1-3)[Fuc(a1-2)[Gal(a1-3)]Gal(b1-3)GlcNAc(b1-2)Man(a1-6)]Man(b1-4)GlcNAc(b1-4)GlcNAc
# How it was run: as §1
# [23] = target: Fuc(a1-2)[Gal(a1-3)]Gal(b1-3)GlcNAc(b1-2)Man(a1-3)[Fuc(a1-2)[Gal(a1-3)]Gal(b1-3)GlcNAc(b1-2)Man(a1-6)]Man(b1-4)GlcNAc(b1-4)[Fuc(a1-6)]GlcNAc
# How it was run: as §1
# [24] = target: Fuc(a1-2)[Gal(a1-3)]Gal(b1-3)GlcNAc(b1-3)GalNAc
# How it was run: as §1
# [25] = target: Fuc(a1-2)[Gal(a1-3)]Gal(b1-3)GlcNAc(b1-6)GalNAc
# How it was run: as §1
# [26] = target: Fuc(a1-2)[Gal(a1-3)]Gal(b1-4)Glc
# How it was run: as §1
# [27] = target: Fuc(a1-2)[Gal(a1-3)]Gal(b1-4)GlcNAc
# How it was run: as §1
# [28] = target: Fuc(a1-2)[Gal(a1-3)]Gal(b1-4)GlcNAc(b1-2)Man
# How it was run: as §1
binder,measurement,setting,value
"XTP3-B-MRH2 (Homo sapiens), Q96DZ1 (protein) EFLSGSYCFRGGVGWWKYEFCYGKHVHQYHEDKDSGKTSVVVGTWNQEEHIEWAKKNTARAYHLQDDGTQTVRMVSHFYGNGDICDITDKPRQVTVKLKCKESDSPHAVTVYMLEPHSCQYILGVESPVICKILDTA",glycan array binding signal (z-score),[1],0.06
same,glycan array binding signal (z-score),[2],0.574
same,glycan array binding signal (z-score),[3],-0.57
same,glycan array binding signal (z-score),[4],1.07
same,glycan array binding signal (z-score),[5],-0.248
same,glycan array binding signal (z-score),[6],-0.26
same,glycan array binding signal (z-score),[7],-0.458
same,glycan array binding signal (z-score),[8],-0.167
same,glycan array binding signal (z-score),[9],0.442
same,glycan array binding signal (z-score),[10],-0.624
same,glycan array binding signal (z-score),[11],-0.464
same,glycan array binding signal (z-score),[12],-0.667
same,glycan array binding signal (z-score),[13],-0.549
same,glycan array binding signal (z-score),[14],-0.589
same,glycan array binding signal (z-score),[15],-0.066
same,glycan array binding signal (z-score),[16],-2.05
same,glycan array binding signal (z-score),[17],-0.606
same,glycan array binding signal (z-score),Fuc(a1-2)Gal6S(b1-4)Glc,0.258
same,glycan array binding signal (z-score),[18],0.542
same,glycan array binding signal (z-score),Fuc(a1-2)[Gal(a1-3)]Gal,0.097
same,glycan array binding signal (z-score),[19],-0.386
same,glycan array binding signal (z-score),[20],0.773
same,glycan array binding signal (z-score),[21],0.169
same,glycan array binding signal (z-score),[22],2.72
same,glycan array binding signal (z-score),[23],0.171
same,glycan array binding signal (z-score),[24],-0.402
same,glycan array binding signal (z-score),[25],-0.515
same,glycan array binding signal (z-score),[26],1.19
same,glycan array binding signal (z-score),[27],-0.087
same,glycan array binding signal (z-score),[28],-0.997

# 2 entries picked at random from the list so far, as already listed:
binder,measurement,setting,value
"XTP3-B-MRH2 (Homo sapiens), Q96DZ1 (protein) EFLSGSYCFRGGVGWWKYEFCYGKHVHQYHEDKDSGKTSVVVGTWNQEEHIEWAKKNTARAYHLQDDGTQTVRMVSHFYGNGDICDITDKPRQVTVKLKCKESDSPHAVTVYMLEPHSCQYILGVESPVICKILDTA",glycan array binding signal (z-score),Fuc(a1-2)Gal6S(b1-4)Glc,0.258
same,glycan array binding signal (z-score),[5],-0.248
